Counter-ions that a name gives are not always drawn. Some of the results follow. Most values come without repeats; read them as rough.
Key:
Assay in all cases: reduction in cell viability relative to untreated/vehicle; higher = more growth inhibition
Details in all cases: 200 nM; 72 h
M229P = system: M229P (parental melanoma line)
M229R = system: M229R (matched melanoma line resistant to BRAF inhibitors)
M238P = system: M238P (parental melanoma line)
M238R = system: M238R (matched melanoma line resistant to BRAF inhibitors)
M249P = system: M249P (parental melanoma line)
M249R = system: M249R (matched melanoma line resistant to BRAF inhibitors)
UACC62P = system: UACC62P (parental melanoma line)
UACC62R = system: UACC62R (matched melanoma line resistant to BRAF inhibitors)

| SMILES | reduction in cell viability (M229P) [%] | reduction in cell viability (M229R) [%] | reduction in cell viability (M238P) [%] | reduction in cell viability (M238R) [%] | reduction in cell viability (M249P) [%] | reduction in cell viability (M249R) [%] | reduction in cell viability (UACC62P) [%] | reduction in cell viability (UACC62R) [%] |
| --- | --- | --- | --- | --- | --- | --- | --- | --- |
| CCN1CCN(C(=O)N[C@@H](C(=O)N[C@@H]2C(=O)N3C(C(=O)O)=C(CSc4nnnn4C)CS[C@H]23)c2ccc(O)cc2)C(=O)C1=O [Cefoperazone sodium] | < 0 | < 0 | < 0 | < 0 | < 0 | < 0 | < 0 | < 0 |
| O=c1c(O)c(-c2ccc(O)cc2O)oc2cc(O)cc(O)c12 [Morin hydrate] | < 0 | < 0 | < 0 | < 0 | < 0 | < 0 | < 0 | < 0 |
| Nc1ncnc2c1ncn2[C@@H]1O[C@H](CO)[C@@H](O)[C@@H]1O [Vidarabine] | < 0 | < 0 | < 0 | < 0 | < 0 | < 0 | < 0 | < 0 |
| COc1ccccc1-c1cccc(-c2c(O)c3cc(C#N)c(Cl)cc3[nH]c2=O)c1 | < 0 | < 0 | < 0 | < 0 | < 0 | < 0 | < 0 | < 0 |
| Nc1ccc(C(=O)Nc2cccc(-c3nc(N4CCOCC4)c4oc5ncccc5c4n3)c2)cn1 | < 0 | < 0 | < 0 | < 0 | < 0 | < 0 | < 0 | < 0 |
| C[C@H]1O[C@@H](n2cc(F)c(=O)[nH]c2=O)[C@H](O)[C@@H]1O [Doxifluridine] | < 0 | < 0 | < 0 | < 0 | < 0 | < 0 | < 0 | < 0 |
| Nc1nc(=O)c2c([nH]1)NCC(CNc1ccc(C(=O)N[C@@H](CCC(=O)O)C(=O)O)cc1)N2C=O (stereo partly specified) [Calcium folinate] | < 0 | < 0 | < 0 | < 0 | < 0 | < 0 | < 0 | < 0 |
| CN(C)c1ccc(C(=C2C=CC(=[N+](C)C)C=C2)c2ccc(N(C)C)cc2)cc1 [Methylrosaniline chloride] | 76.7 | 63 | 70.6 | 75.3 | 72.6 | 76.2 | 62.6 | 90.2 |
| NS(=O)(=O)c1ccc(NC2=CC(=O)c3ccccc3C2=O)cc1 | < 0 | < 0 | 53.2 | 25.6 | < 0 | 6.22 | 30.3 | 41 |
| CC(C)c1ccc2c(c1)c(SC(C)(C)C)c(CC(C)(C)C(=O)O)n2Cc1ccc(Cl)cc1 | < 0 | < 0 | < 0 | < 0 | < 0 | < 0 | < 0 | < 0 |
| CCCCCCCCc1ccc(CCC(N)(CO)CO)cc1 [Fingolimod hydrochloride] | < 0 | < 0 | < 0 | < 0 | < 0 | < 0 | < 0 | < 0 |
| Nc1c2c(nc3ccccc13)CCCC2 [Tacrine] | < 0 | < 0 | < 0 | < 0 | < 0 | < 0 | < 0 | < 0 |
| Cc1oncc1C(=O)Nc1ccc(C(F)(F)F)cc1 [Leflunomide] | < 0 | < 0 | < 0 | < 0 | < 0 | < 0 | 14.8 | < 0 |
| COc1cc(C)c(/C=C/C(C)=C/C=C/C(C)=C/C(=O)O)c(C)c1C [Acitretin] | < 0 | < 0 | < 0 | < 0 | 13.6 | < 0 | < 0 | < 0 |
| CC(C)[C@H](O)C(=O)N[C@@H](C)C(=O)N[C@@H]1C(=O)N(C)CCc2ccccc21 [Semagacestat] | < 0 | < 0 | < 0 | < 0 | < 0 | < 0 | 19.1 | < 0 |
| Cc1ccc(NC(=O)c2ccc(CN3CCN(C)CC3)cc2)cc1Nc1nccc(-c2cccnc2)n1 [Imatinib] | < 0 | < 0 | < 0 | < 0 | < 0 | < 0 | 0.37 | < 0 |
| N/C(=N\C(=O)c1nc(Cl)c(N)nc1N)NCc1ccccc1 [Benzamil] | < 0 | < 0 | < 0 | < 0 | < 0 | < 0 | < 0 | < 0 |
| Cc1cccc(Nc2ccncc2S(=O)(=O)NC(=O)NC(C)C)c1 [Torasemide] | < 0 | < 0 | < 0 | < 0 | < 0 | < 0 | < 0 | < 0 |
| O=C(O)[C@]1(Cc2cccc(Nc3nccs3)n2)CC[C@@H](Oc2cccc(Cl)c2F)CC1 | < 0 | < 0 | < 0 | < 0 | < 0 | < 0 | < 0 | < 0 |
| CC=CC(=O)N(CC)c1ccccc1C [Crotamiton] | < 0 | 18.6 | < 0 | < 0 | < 0 | 1.25 | < 0 | < 0 |
| C#C[C@]1(O)CC[C@H]2[C@@H]3CCc4cc(O)ccc4[C@H]3CC[C@@]21C [Ethinylestradiol] | < 0 | < 0 | < 0 | < 0 | < 0 | < 0 | 6.11 | < 0 |

4 entries from above, bar-delimited.
SMILES | reduction in cell viability (M229P) [%] | reduction in cell viability (M229R) [%] | reduction in cell viability (M238P) [%] | reduction in cell viability (M238R) [%] | reduction in cell viability (M249P) [%] | reduction in cell viability (M249R) [%] | reduction in cell viability (UACC62P) [%] | reduction in cell viability (UACC62R) [%]
CC(C)[C@H](O)C(=O)N[C@@H](C)C(=O)N[C@@H]1C(=O)N(C)CCc2ccccc21 [Semagacestat] | < 0 | < 0 | < 0 | < 0 | < 0 | < 0 | 19.1 | < 0
Cc1cccc(Nc2ccncc2S(=O)(=O)NC(=O)NC(C)C)c1 [Torasemide] | < 0 | < 0 | < 0 | < 0 | < 0 | < 0 | < 0 | < 0
O=C(O)[C@]1(Cc2cccc(Nc3nccs3)n2)CC[C@@H](Oc2cccc(Cl)c2F)CC1 | < 0 | < 0 | < 0 | < 0 | < 0 | < 0 | < 0 | < 0
C#C[C@]1(O)CC[C@H]2[C@@H]3CCc4cc(O)ccc4[C@H]3CC[C@@]21C [Ethinylestradiol] | < 0 | < 0 | < 0 | < 0 | < 0 | < 0 | 6.11 | < 0

Later entries

| SMILES | reduction in cell viability (M229P) [%] | reduction in cell viability (M229R) [%] | reduction in cell viability (M238P) [%] | reduction in cell viability (M238R) [%] | reduction in cell viability (M249P) [%] | reduction in cell viability (M249R) [%] | reduction in cell viability (UACC62P) [%] | reduction in cell viability (UACC62R) [%] |
| --- | --- | --- | --- | --- | --- | --- | --- | --- |
| O=C(NCCS(=O)(=O)c1ccc(C(F)(F)F)cn1)c1ccc(Cl)cc1 | < 0 | < 0 | < 0 | < 0 | < 0 | < 0 | < 0 | < 0 |
| COc1cccc2c(NCc3ccccc3)nc(-n3c(N)nc4ccccc43)nc12 | < 0 | < 0 | < 0 | < 0 | < 0 | 0.56 | 0.55 | < 0 |
| OC[C@@H](O)[C@@H](O)[C@H](O)[C@H](O)CO [Mannitol] | < 0 | < 0 | < 0 | < 0 | < 0 | < 0 | < 0 | < 0 |
| CCOC(=O)/C=C/[C@H](C[C@@H]1CCNC1=O)NC(=O)[C@@H](CC(=O)[C@@H](NC(=O)c1cc(C)on1)C(C)C)Cc1ccc(F)cc1 [Rupintrivir] | < 0 | < 0 | < 0 | < 0 | < 0 | < 0 | < 0 | < 0 |
| CS(=O)(=O)N1CCc2c(-c3cnc(N)nc3)nc(N3CCOCC3)nc21 | < 0 | 8.5 | 12.2 | < 0 | 6.14 | < 0 | 25.9 | 14.8 |
| O=C1CCC[C@@H]2[C@H]3CCC[N+]4([O-])CCC[C@@H](CN12)[C@@H]34 (stereo partly specified) [Oxymatrine] | < 0 | < 0 | < 0 | < 0 | < 0 | < 0 | < 0 | < 0 |
| COc1cc2nc(N3CCN(C(=O)C4CCCO4)CC3)nc(N)c2cc1OC (stereo unspecified) [Terazosin hydrochloride] | < 0 | < 0 | < 0 | < 0 | < 0 | < 0 | < 0 | < 0 |
| COc1ccc2cc([C@H](C)C(=O)O)ccc2c1 [Naproxen sodium] | < 0 | < 0 | < 0 | < 0 | < 0 | < 0 | < 0 | < 0 |
| COC(=O)[C@@H]1[C@H]2C[C@H]3c4[nH]c5ccccc5c4CCN3C[C@@H]2CC[C@@H]1O [Yohimbine] | < 0 | < 0 | < 0 | < 0 | < 0 | < 0 | < 0 | < 0 |
| O=C(NCc1ccccc1)[C@H](Cc1ccccc1)NC(=O)[C@H]1O[C@@H]1C(=O)NCCc1ccc(O)cc1 | < 0 | < 0 | < 0 | < 0 | < 0 | < 0 | < 0 | < 0 |
| CC1=C(C)C(=O)C(C(CCCCCC(=O)O)c2ccccc2)=C(C)C1=O (racemic) | < 0 | 6.57 | 6.06 | < 0 | < 0 | < 0 | < 0 | < 0 |
| NC(=O)c1ncn([C@@H]2O[C@H](CO)[C@@H](O)[C@H]2O)c1N [Acadesine] | < 0 | < 0 | < 0 | < 0 | < 0 | < 0 | 0.04 | < 0 |
| COc1cccc(OC)c1-c1cc(C(=O)NC2(C(=O)O)C3CC4CC(C3)CC2C4)nn1-c1ccnc2cc(Cl)ccc12 (stereo unspecified) [Meclinertant] | < 0 | < 0 | < 0 | < 0 | < 0 | < 0 | < 0 | < 0 |
| CC(=O)SC[C@@H](C)C(=O)N1CCC[C@H]1C(=O)N[C@@H](Cc1ccccc1)C(=O)O [Alacepril] | < 0 | < 0 | < 0 | < 0 | < 0 | < 0 | < 0 | < 0 |
| CCCCS(=N)(=O)CCC(N)C(=O)O [L-Buthionine-sulfoximine] | < 0 | < 0 | < 0 | < 0 | < 0 | < 0 | < 0 | < 0 |
| O=c1c(-c2ccc(O)cc2)coc2cc(O[C@@H]3O[C@H](CO)[C@@H](O)[C@H](O)[C@H]3O)cc(O)c12 [Genistin] | < 0 | < 0 | < 0 | < 0 | 3.23 | < 0 | < 0 | < 0 |
| CCOc1cc(N2CCC(O)CC2)ccc1Nc1ncc2c(n1)N(C)c1ccccc1C(=O)N2C | < 0 | < 0 | < 0 | < 0 | < 0 | 2.16 | 10.1 | < 0 |
| Cn1cc(C2=C(c3ccc(Cl)cc3Cl)C(=O)NC2=O)c2ccccc21 | < 0 | < 0 | < 0 | < 0 | < 0 | < 0 | < 0 | < 0 |
| Nc1cccc(S(=O)(=O)N2CCCN(S(=O)(=O)c3ccc4c(c3)OCCO4)CC2)c1 | < 0 | < 0 | < 0 | < 0 | < 0 | < 0 | < 0 | < 0 |
| Cc1cccc(N(C)C(=S)Oc2ccc3ccccc3c2)c1 [Tolnaftate] | < 0 | < 0 | < 0 | < 0 | < 0 | < 0 | < 0 | < 0 |
| O=c1[nH]cc(F)c(=O)[nH]1 [Fluorouracil] | < 0 | < 0 | < 0 | 3.47 | 0.04 | < 0 | 5.52 | < 0 |

Source: the supplement of paper PMC9015667
